# Results taken from the supplement of paper PMC8728848.
# Some of the results follow.
# Legend:
# Assay in all cases: glycan array binding signal (z-score within array); higher = stronger binding
# Conditions in all cases: glycan notation: IUPAC condensed, linker removed
# [1] = molecular target: GlcNAc(b1-3)Gal(b1-4)GlcNAc(b1-3)Gal(b1-4)GlcNAc(b1-3)GalNAc
# Summary of the method: (§1)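 Columns mapping to the same glycan were averaged after glycan names were converted to IUPAC-condensed notation. The data come from 3228 arrays in the Consortium for Functional Glycomics database, limited to those with an available protein sequence. Binding is reported as a within-array Z-score averaged across arrays of one protein sequence and across linkers.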
# [2] = molecular target: GlcNAc(b1-3)Gal(b1-4)GlcNAc(b1-3)GalNAc
# Summary of the method: as §1
# [3] = molecular target: GlcNAc(b1-3)Gal(b1-4)GlcNAc(b1-3)[GlcNAc(b1-3)Gal(b1-4)GlcNAc(b1-3)]GalNAc
# Summary of the method: as §1
# [4] = molecular target: GlcNAc(b1-3)Gal(b1-4)GlcNAc(b1-6)[Gal(b1-3)]GalNAc
# Summary of the method: as §1
# [5] = molecular target: GlcNAc(b1-3)Gal(b1-4)GlcNAc(b1-6)[GlcNAc(b1-3)Gal(b1-3)]GalNAc
# Summary of the method: as §1
# [6] = molecular target: GlcNAc(b1-3)Gal(b1-4)GlcNAc(b1-6)[GlcNAc(b1-3)]Gal(b1-4)GlcNAc
# Summary of the method: as §1
# GlcNAc(b1-3)GalNAc = molecular target: GlcNAc(b1-3)GalNAc
# Summary of the method: as §1
# GlcNAc(b1-3)Man = molecular target: GlcNAc(b1-3)Man
# Summary of the method: as §1
# [7] = molecular target: GlcNAc(b1-3)[GlcNAc(b1-4)][GlcNAc(b1-6)]GlcNAc
# Summary of the method: as §1
# [8] = molecular target: GlcNAc(b1-3)[GlcNAc(b1-6)]Gal(b1-4)GlcNAc
# Summary of the method: as §1
# [9] = molecular target: GlcNAc(b1-3)[GlcNAc(b1-6)]GalNAc
# Summary of the method: as §1
# [10] = molecular target: GlcNAc(b1-4)Gal(b1-4)GlcNAc
# Summary of the method: as §1
# GlcNAc(b1-4)GlcNAc = molecular target: GlcNAc(b1-4)GlcNAc
# Summary of the method: as §1
# [11] = molecular target: GlcNAc(b1-4)GlcNAc(b1-4)GlcNAc
# Summary of the method: as §1
# [12] = molecular target: GlcNAc(b1-4)GlcNAc(b1-4)GlcNAc(b1-4)GlcNAc(b1-4)GlcNAc
# Summary of the method: as §1
# [13] = molecular target: GlcNAc(b1-4)GlcNAc(b1-4)GlcNAc(b1-4)GlcNAc(b1-4)GlcNAc(b1-4)GlcNAc
# Summary of the method: as §1
# [14] = molecular target: GlcNAc(b1-4)[GlcNAc(b1-6)]GalNAc
# Summary of the method: as §1
# [15] = molecular target: GlcNAc(b1-6)Gal(b1-4)GlcNAc
# Summary of the method: as §1
# GlcNAc(b1-6)GalNAc = molecular target: GlcNAc(b1-6)GalNAc
# Summary of the method: as §1
# [16] = molecular target: GlcNAc6S(b1-3)Gal(b1-4)GlcNAc
# Summary of the method: as §1
# Kdn(a2-3)Gal(b1-3)GalNAc = molecular target: Kdn(a2-3)Gal(b1-3)GalNAc
# Summary of the method: as §1
# Kdn(a2-3)Gal(b1-3)GlcNAc = molecular target: Kdn(a2-3)Gal(b1-3)GlcNAc
# Summary of the method: as §1
# Kdn(a2-3)Gal(b1-4)Glc = molecular target: Kdn(a2-3)Gal(b1-4)Glc
# Summary of the method: as §1
# Kdn(a2-3)Gal(b1-4)GlcNAc = molecular target: Kdn(a2-3)Gal(b1-4)GlcNAc
# Summary of the method: as §1
# [17] = molecular target: Kdn(a2-3)Gal(b1-4)[Fuc(a1-3)]GlcNAc
# Summary of the method: as §1
# Kdn(a2-6)Gal(b1-4)GlcNAc = molecular target: Kdn(a2-6)Gal(b1-4)GlcNAc
# Summary of the method: as §1
# [18] = molecular target: Man(a1-2)Man(a1-2)Man(a1-3)Man
# Summary of the method: as §1
# [19] = molecular target: Man(a1-2)Man(a1-2)Man(a1-6)[Man(a1-3)]Man
# Summary of the method: as §1
# Man(a1-2)Man(a1-3)Man = molecular target: Man(a1-2)Man(a1-3)Man
# Summary of the method: as §1
# [20] = molecular target: Man(a1-2)Man(a1-3)[Man(a1-2)Man(a1-6)]Man
# Summary of the method: as §1
binder,measurement,setting,value
TAL6-6LysM (Trichoderma atroviride) (protein) AASKLGVPQPAQRDQVNCQLYAVQPNDNCIDISSKNNITYAQLLSWNPSLSSTCSNLASLNSSSICVSNPKGTFSISSNTVGATDIATTTAPVPSPTLDQTTSRCAKYYQVSDGDDCSHLTAQFAITLKDFIFLNSEVWQNCTNLELGYYYCVEPVGYISTYPGYLPTATTKPFNQTSATSLPYDGDPWARFSSNSSVIPIANGTRVDCYSYVYVKNLTENLFADCWNMASMYEITREELVLWNPSLGNDGSSGSNLSGAEASQVASSIAIPTTAPSSITTNLYTYPCTVAANISYCVALVSSTGALPTNTAPPGPHASGEISNCTAWFAPEAYDTCKSILDIFEMSFANFYKMNPSVGPDCSGLAVGTNYCVSTYPNGEDPNDDWDGDDSIPSISPTGIITPTPTQSGMVSNCNKFYDVHSNDGCSAIASSQHVDLSSLYKWNPAIKTDCSGLQASVYVCIGILTTSMSTTSKLPTTTSKPSTTSKPPTGITTPTPTQSGMVKNCNKFYDVHSGDGCSAIASSQKVNLSSFYLWNPAVKTDCSGLQASVFVCIGTLTTSMSTTTSKLPTTTSKPSTTSKPPTGIITPTPTQNGMVKNCNKFYDVHSGDGCSAIASSQKVNLSSFYLWNPAVKTDCSGLQASVFVCVGTATTTTAAGITTPTPTQSGMVSGCNKFYDVHAGDGCSAIASSQKIALSSLYKWNPAVKTDCSGLQASVYICIGVGNAAAARVTGAAASFLEQKLISEEDLNSAVDHHHHHH,glycan array binding signal (z-score),[1],-0.562
same,glycan array binding signal (z-score),[2],0.442
same,glycan array binding signal (z-score),[3],0.159
same,glycan array binding signal (z-score),[4],-0.872
same,glycan array binding signal (z-score),[5],-0.153
same,glycan array binding signal (z-score),[6],-0.351
same,glycan array binding signal (z-score),GlcNAc(b1-3)GalNAc,-0.098
same,glycan array binding signal (z-score),GlcNAc(b1-3)Man,-0.043
same,glycan array binding signal (z-score),[7],1.9
same,glycan array binding signal (z-score),[8],-0.188
same,glycan array binding signal (z-score),[9],-1.08
same,glycan array binding signal (z-score),[10],-0.967
same,glycan array binding signal (z-score),GlcNAc(b1-4)GlcNAc,-0.197
same,glycan array binding signal (z-score),[11],0.25
same,glycan array binding signal (z-score),[12],0.737
same,glycan array binding signal (z-score),[13],-0.324
same,glycan array binding signal (z-score),[14],1
same,glycan array binding signal (z-score),[15],-1.19
same,glycan array binding signal (z-score),GlcNAc(b1-6)GalNAc,1.32
same,glycan array binding signal (z-score),[16],0.253
same,glycan array binding signal (z-score),Kdn(a2-3)Gal(b1-3)GalNAc,-0.313
same,glycan array binding signal (z-score),Kdn(a2-3)Gal(b1-3)GlcNAc,-1.18
same,glycan array binding signal (z-score),Kdn(a2-3)Gal(b1-4)Glc,-0.559
same,glycan array binding signal (z-score),Kdn(a2-3)Gal(b1-4)GlcNAc,0.21
same,glycan array binding signal (z-score),[17],1.88
same,glycan array binding signal (z-score),Kdn(a2-6)Gal(b1-4)GlcNAc,2.71
same,glycan array binding signal (z-score),[18],-0.998
same,glycan array binding signal (z-score),[19],-1.13
same,glycan array binding signal (z-score),Man(a1-2)Man(a1-3)Man,-0.128
same,glycan array binding signal (z-score),[20],-0.348

# A second format for part of the listing above.
binder | measurement | setting | value
TAL6-6LysM (Trichoderma atroviride) (protein) AASKLGVPQPAQRDQVNCQLYAVQPNDNCIDISSKNNITYAQLLSWNPSLSSTCSNLASLNSSSICVSNPKGTFSISSNTVGATDIATTTAPVPSPTLDQTTSRCAKYYQVSDGDDCSHLTAQFAITLKDFIFLNSEVWQNCTNLELGYYYCVEPVGYISTYPGYLPTATTKPFNQTSATSLPYDGDPWARFSSNSSVIPIANGTRVDCYSYVYVKNLTENLFADCWNMASMYEITREELVLWNPSLGNDGSSGSNLSGAEASQVASSIAIPTTAPSSITTNLYTYPCTVAANISYCVALVSSTGALPTNTAPPGPHASGEISNCTAWFAPEAYDTCKSILDIFEMSFANFYKMNPSVGPDCSGLAVGTNYCVSTYPNGEDPNDDWDGDDSIPSISPTGIITPTPTQSGMVSNCNKFYDVHSNDGCSAIASSQHVDLSSLYKWNPAIKTDCSGLQASVYVCIGILTTSMSTTSKLPTTTSKPSTTSKPPTGITTPTPTQSGMVKNCNKFYDVHSGDGCSAIASSQKVNLSSFYLWNPAVKTDCSGLQASVFVCIGTLTTSMSTTTSKLPTTTSKPSTTSKPPTGIITPTPTQNGMVKNCNKFYDVHSGDGCSAIASSQKVNLSSFYLWNPAVKTDCSGLQASVFVCVGTATTTTAAGITTPTPTQSGMVSGCNKFYDVHAGDGCSAIASSQKIALSSLYKWNPAVKTDCSGLQASVYICIGVGNAAAARVTGAAASFLEQKLISEEDLNSAVDHHHHHH | glycan array binding signal (z-score) | [9] | -1.08
same | glycan array binding signal (z-score) | [19] | -1.13
